# From PubChem BioAssay AID1117319 (Southern Research Institute, 2015)
# The chains behind the UniProt entries cited, without tags or fusion partners. Where a name states a change or a piece, a line headed by the entry shows the natural chain unless it says otherwise.
# UniProt P69720: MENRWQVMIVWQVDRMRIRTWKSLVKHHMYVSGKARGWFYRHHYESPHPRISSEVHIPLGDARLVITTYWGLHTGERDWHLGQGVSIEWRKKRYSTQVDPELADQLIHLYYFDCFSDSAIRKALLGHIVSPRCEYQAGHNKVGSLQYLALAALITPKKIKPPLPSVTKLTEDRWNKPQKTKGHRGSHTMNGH
# UniProt P69721: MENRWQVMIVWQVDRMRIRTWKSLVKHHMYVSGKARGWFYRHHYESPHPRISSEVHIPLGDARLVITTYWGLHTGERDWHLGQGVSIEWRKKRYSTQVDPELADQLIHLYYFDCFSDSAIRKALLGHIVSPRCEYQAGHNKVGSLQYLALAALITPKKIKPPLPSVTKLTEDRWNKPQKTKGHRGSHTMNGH
# UniProt P69722: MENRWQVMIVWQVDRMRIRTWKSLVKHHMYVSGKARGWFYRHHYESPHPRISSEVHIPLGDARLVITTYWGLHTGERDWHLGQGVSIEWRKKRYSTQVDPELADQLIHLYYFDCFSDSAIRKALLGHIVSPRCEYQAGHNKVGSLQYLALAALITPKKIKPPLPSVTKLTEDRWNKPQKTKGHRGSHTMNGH
# UniProt P69723: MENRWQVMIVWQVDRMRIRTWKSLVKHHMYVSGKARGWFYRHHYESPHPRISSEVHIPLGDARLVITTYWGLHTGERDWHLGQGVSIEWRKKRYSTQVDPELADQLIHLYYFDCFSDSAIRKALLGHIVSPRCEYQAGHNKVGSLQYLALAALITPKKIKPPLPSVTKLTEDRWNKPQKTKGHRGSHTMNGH
# UniProt Q9HC16: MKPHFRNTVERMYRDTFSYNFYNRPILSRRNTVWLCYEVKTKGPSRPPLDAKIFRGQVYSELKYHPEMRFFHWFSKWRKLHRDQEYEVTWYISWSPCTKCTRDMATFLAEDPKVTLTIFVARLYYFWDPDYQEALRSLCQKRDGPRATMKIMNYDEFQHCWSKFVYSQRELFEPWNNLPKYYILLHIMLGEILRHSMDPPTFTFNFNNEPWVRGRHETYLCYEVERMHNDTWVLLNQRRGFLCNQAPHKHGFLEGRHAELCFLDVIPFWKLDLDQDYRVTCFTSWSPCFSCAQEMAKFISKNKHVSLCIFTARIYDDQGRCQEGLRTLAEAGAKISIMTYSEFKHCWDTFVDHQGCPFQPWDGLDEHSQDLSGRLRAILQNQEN
# In all, about 260,000 compounds went through this assay and about 1,500 (0.58%) were called active. Inconclusive results, whose numbers are uncertain, are shown with a selection of clear calls.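 How the source made its calls: active means inhibition above a set limit at one or more doses, reproduced on every date tested; inconclusive means results disagree between test dates, or hit never tested in dose response; inactive means the rest.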
# Target: Virion infectivity factor (Human immunodeficiency virus type 1 group M subtype B (isolate BH10)) + Virion infectivity factor (Human immunodeficiency virus type 1 group M subtype B (isolate BRU/LAI)) + Virion infectivity factor (Human immunodeficiency virus type 1 group M subtype B (isolate PCV12)) + Virion infectivity factor (Human immunodeficiency virus type 1 group M subtype B (isolate HXB2)) + DNA dC->dU-editing enzyme APOBEC-3G (Homo sapiens) (UniProt P69720+P69721+P69722+P69723+Q9HC16)
# Assay: inhibitors of Vif binding to APOBEC3G peptide, primary screen, biochemical, TR-FRET, GST-Vif 1-94, biotin-A3G peptide, dose response retest (AID 1117319);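 further: Vif residues 1-94 fused to GST binding biotinylated APOBEC3G peptide 110-148; 0% = full assay without inhibitor and 100% = GST in place of GST-Vif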
# Settings: stronger effect = higher value
row,SMILES,inhibition
1,Cc1cccc(NC(=O)CSc2nnc(Cc3ccccc3)o2)c1,inconclusive: 42.5%
2,CC1CCCCC1NC(=O)C(Cc1ccccc1)NS(=O)(=O)c1cccs1 (stereo unspecified),inconclusive: 58.2%
3,Cc1nc(-c2cc(C#N)c(Sc3cccc(C(F)(F)F)c3)nc2C)cs1,inactive: -11.1%
4,O=C(O)CCC/C=C\C[C@@H]1[C@@H](/C=C/[C@@H](O)COc2cccc(Cl)c2)[C@H](O)C[C@@H]1O,inconclusive: 43.8%
5,Cc1occc1-c1nnc(SCC(=O)NCc2ccco2)n1CC(C)C,inconclusive: 51.5%
6,Oc1ccc(/C=N/NC(=S)Nc2cccnc2)cc1O,inconclusive: 43%
7,Oc1csc(Cc2nc(-c3ccc(-c4ccccc4)cc3)cs2)n1,inconclusive: 41.5%
8,CCOC(=O)CN1C(=O)S/C(=C/c2ccc(N3CCCCC3)o2)C1=O,inconclusive: 42.7%
9,CCOC(=O)C1=C(CBr)NC(=O)NC1C (stereo unspecified),inconclusive: 45.5%
10,CC1C/C(=N\NC(=O)c2cccnc2)CC(C)(C)C1 (stereo unspecified),inconclusive: 38.8%
11,Cc1occc1-c1nnc(SCC(=O)Nc2ccccc2)n1C,inactive: 1.99%
12,Cc1cc(C)n2c(SC/C(O)=C(\C#N)c3nc4ccccc4[nH]3)nnc2n1,inconclusive: 33.5%
13,O=C(c1ccco1)N1CCN(Cc2cc(=O)c(OCc3ccccc3Cl)co2)CC1,inactive: -9.22%
14,COC(=O)c1cccc(COC(=O)c2ccc(N(C)C)cc2)c1,inactive: -1.93%
15,Cn1cnnc1SCCC(=O)Nc1ccccc1,inconclusive: 46.4%
16,O=C(CN1C(=O)c2ccccc2S1(=O)=O)Nc1ccc(S(=O)(=O)N2CCCCCC2)cc1,inconclusive: 50.9%
17,CC(=O)Nc1cnc2ccccc2n1,inconclusive: 38.1%
18,COc1cccc(OC)c1OCCNC(C)(C)C,inconclusive: 58.5%
19,Cc1nc2ccc(Cl)cc2c(-c2ccccc2F)c1CC(=O)O,inconclusive: 51%
20,CCN1C(=O)CSc2ccc(C(=O)NCc3ccccc3OC)cc21,inconclusive: 47.1%
21,Cc1ccc(-c2nnn(CC(=O)N(CCN3CCOCC3)C(C(=O)NC(C)(C)C)c3ccc(C)o3)n2)cc1 (stereo unspecified),inconclusive: 44.4%
22,Cc1ccc(S(=O)(=O)NC2c3cccc4cccc(c34)C2Sc2ncccn2)cc1 (stereo unspecified),inconclusive: 48.5%
23,Cc1cccc(N2CCN(C(=O)C3CCN(S(=O)(=O)c4cnc[nH]4)CC3)CC2)c1C,inconclusive: 33%

# Part of the list above, with bars between the fields:
row | SMILES | inhibition
16 | O=C(CN1C(=O)c2ccccc2S1(=O)=O)Nc1ccc(S(=O)(=O)N2CCCCCC2)cc1 | inconclusive: 50.9%
17 | CC(=O)Nc1cnc2ccccc2n1 | inconclusive: 38.1%

# Next part:

row,SMILES,inhibition
1,CC1=CC2=NC(=O)/C(=C\c3cccn3CCOc3cccc(C)c3)C(=N)N2O1,inactive: -1.97%
2,C/C=C/c1ccc(OCC(=O)OCC)c(OC)c1,inconclusive: 33%
3,CCCc1nnc(SCc2ccc(C(=O)OC)o2)n1N,inconclusive: 41.3%
4,Cc1c(O)c2c3c(cccc3c1O)C(=O)N(c1ccccc1)C2=O,inconclusive: 34.3%
5,CCOC(=O)C1(C(F)(F)F)N=C(c2cccnc2)OC(N2CCCCC2)=N1 (stereo unspecified),inconclusive: 40.2%
6,c1coc(-c2nnc3sc(Cc4cccs4)nn23)c1,inconclusive: 44.7%
7,COc1ccccc1NC(=O)Cn1cnc2sc(C(=O)Nc3ccc(OC)c(OC)c3)c(C)c2c1=O,inactive: 0.19%
8,Cc1cc(C)c(NC(=O)C(C)OC(=O)c2cc(Br)c(Br)s2)c(C)c1 (stereo unspecified),inconclusive: 47%
9,CN1CCN(CCC(=O)Nc2cccc(Br)c2)CC1,inconclusive: 34.7%
10,N#Cc1ccc(Cn2c(=O)c(C#N)c3n(c2=O)CCC3)cc1,inconclusive: 11.6%
11,CCCCNC(=O)N1CCN(c2ccccc2OCC)CC1,inconclusive: 33.6%
12,CC(C)(C)[C@@H]1C=C(C(=O)NCc2ccccc2)O[C@H](OCc2ccc(CO)cc2)C1,inconclusive: 38.8%
13,Cn1cc(CNCc2ccccc2OCC(O)CN2CCc3ccccc3C2)cn1 (stereo unspecified),inconclusive: 58.6%
14,Cc1ccccc1CSc1nnc(NC(=O)C2COc3ccccc3O2)s1 (stereo unspecified),inconclusive: 55.6%
15,O=C(NCc1cccnc1)c1cc([N+](=O)[O-])ccc1N1CCOCC1,inconclusive: 56.3%
16,CCc1ccc(NC(=O)CSc2nc3cc(C(=O)OC)ccc3c(=O)n2CC2CCCO2)cc1 (stereo unspecified),inconclusive: 58%
17,CCCOC(=O)c1c(NC(=O)/C=C/c2cnn(C)c2C)sc(C(=O)OCC)c1C,inconclusive: 33%
18,COc1ccc(NCc2ccccc2[N+](=O)[O-])cc1OC,inconclusive: 50.3%
19,Cc1cc(/C=N/NC(N)=O)c(C)c(CO)c1,inconclusive: 38.7%
20,COCCn1nnnc1C(c1ccc(OC)cc1OC)N1CCN(c2ccccc2F)CC1 (stereo unspecified),inconclusive: 34.9%
21,CCc1ccccc1NC(=O)Nc1ccc2c(c1)OCO2,inactive: -3.87%
22,N#Cc1cccc(NC(=O)CSc2nnc(-c3n[nH]c4ccccc34)o2)c1,inactive: -4.45%
23,NC(=O)c1ccc(-n2c(CCC(=O)O)ccc2-c2cccs2)cc1,inconclusive: 38.8%

# Nothing new here: an excerpt of the list.
row,SMILES,inhibition
9,CN1CCN(CCC(=O)Nc2cccc(Br)c2)CC1,inconclusive: 34.7%
10,N#Cc1ccc(Cn2c(=O)c(C#N)c3n(c2=O)CCC3)cc1,inconclusive: 11.6%
11,CCCCNC(=O)N1CCN(c2ccccc2OCC)CC1,inconclusive: 33.6%
12,CC(C)(C)[C@@H]1C=C(C(=O)NCc2ccccc2)O[C@H](OCc2ccc(CO)cc2)C1,inconclusive: 38.8%

# (further entries)

row,SMILES,inhibition
1,COc1ccc(S(=O)(=O)N2CCC(=O)N2)cc1,inconclusive: 44.6%
2,COc1ccc(N2C(=O)/C(=C\c3ccco3)N=C2SCC(=O)NC(C)C)cc1Cl,inconclusive: 42.3%
3,O=C(CSc1ccc2nnc(-c3cccnc3)n2n1)N1CCOCC1,inconclusive: 53.1%
4,CC1CCCC(C)N1C(=O)COC(=O)c1ccc(O)cc1 (stereo unspecified),inconclusive: 34%
5,COc1ccc(-c2onc(C)c2-c2ccc(C(=O)OC(C)C)o2)c(O)c1,inconclusive: 58%
6,Cc1cc2c(OCC(O)CN3CCCC3)cccc2[nH]1 (stereo unspecified),inactive: 2.52%
7,Nn1c(SCc2ccc(F)cc2)nnc1-c1ccccn1,inconclusive: 39.4%
8,Cc1cccc(-c2nc(CSCC(=O)NCCCN3CCOCC3)c(C)o2)c1,inconclusive: 37.8%
9,O=C(CSc1ccc(-c2ccccc2)nn1)N1CCOCC1,inactive: 8.48%
10,O=C(c1ccco1)c1coc2c1cc(O)c1ccccc12,inconclusive: 34.1%
11,CCOC(=O)C1=C(SCC)c2cc3c(n2C1=O)CCCC3,inconclusive: 37.3%
12,O=C(NNC(=S)Nc1cccc(Cl)c1)c1ccccc1OC(F)F,inconclusive: 36.6%
13,COC(=O)CN1C(=O)N/C(=C/c2cc(OC)c(OC)cc2C)C1=O,inconclusive: 47.2%
14,Cc1cc(C)c2oc(-c3ccc(C)c(NC(=S)NC(=O)/C=C/c4ccco4)c3)nc2c1,inconclusive: 42.5%
15,CN(C)S(=O)(=O)N(CC(=O)Nc1ccccc1F)c1ccccc1,inconclusive: 47.5%
16,CN(C)/C=C/C(=O)c1cccc(Cl)c1,inconclusive: 52%
17,CCOc1ccc(-c2cc(C(=O)N3CCN(c4ccccn4)CC3)c3ccccc3n2)cc1,inconclusive: 57.1%
18,CCOC(=O)Nc1sc2c(c1C#N)CCC(C)C2 (stereo unspecified),inconclusive: 33.6%
19,O=C(CCS(=O)(=O)c1ccc(Br)s1)NCc1ccccc1,inconclusive: 44.4%
20,COc1ccc(-c2c[nH]c(=O)[nH]c2=O)cc1OC,inconclusive: 40.8%
21,Cc1ccccc1/C(N)=N/O,inconclusive: 47.2%
22,FC(F)(F)c1nc(N2CCN(c3ccccc3)CC2)nc2c1CCCCC2,inconclusive: 59.1%
23,Cn1c(=O)c2c(nc(Oc3ccc4c(c3)OCO4)n2Cc2ccc(Br)cc2)n(C)c1=O,inconclusive: 47.1%

row,SMILES,inhibition
1,CC1CCCCN1C(=O)CSc1nc2ccsc2c(=O)n1Cc1ccccn1 (stereo unspecified),inconclusive: 62%
2,CSc1nsc2nc(=O)c(/C=C3\C(C)=Nc4ccccc43)c(N)n12,inconclusive: 57.3%
3,Cc1nn(-c2nc3ccccc3s2)c(C)c1Oc1ccccc1O,inconclusive: 38.4%
4,O=C1OC2(c3ccccc31)c1ccccc1-c1ccccc12,inactive: -7.13%
5,Cc1onc(-c2c(F)cccc2Cl)c1C(=O)Nc1cccc2nsnc12,inconclusive: 39.8%
6,CCCCCCN(C(=O)CCCCCN1C(=O)NC(c2ccc(-c3ccccc3)cc2)C(C(=O)OCc2ccccc2)=C1C)C(C(=O)NCCCC)c1ccccc1 (stereo unspecified),inconclusive: 38.5%
7,O=S1(=O)N=C(N2CCN(Cc3ccc4c(c3)OCO4)CC2)c2ccccc21,inconclusive: 41%
8,O=C(O)CCCCCCCCCCC1CCC(O)C1O (stereo unspecified),inactive: -4.99%
9,COc1ccc(C)cc1N(CC(=O)O)S(=O)(=O)c1ccc(C)cc1,inconclusive: 47%
10,CC(C)C(NS(=O)(=O)c1cc(C(=O)O)ccc1Cl)C(=O)O (stereo unspecified),inconclusive: 35.7%
11,COC(=O)Nc1nnc(COc2cccc(C)c2)s1,inconclusive: 46.5%
12,O=C(N/N=C/c1cn(-c2ccccc2)nc1-c1ccc(F)cc1)c1ccc(Br)o1,inconclusive: 56.1%
13,O=C(CSc1nnc(Cc2cc(=O)[nH]c(=O)[nH]2)n1-c1ccc(Cl)cc1)NCC1CCCO1 (stereo unspecified),inconclusive: 61.1%
14,COc1cc2c(cc1NC(=O)c1ccc3c(c1)OCO3)oc1ccccc12,inconclusive: 46%
15,CCCOC(=O)Nc1ccc(N2CCCCC2)cc1,inconclusive: 33.2%
16,CN1CCc2c(sc3c2c(=O)n(-c2ccccc2)c2nncn32)C1,inconclusive: 38.4%
17,C/C(=C\C=C(C#N)C#N)c1cc(C#N)c(N)o1,inconclusive: 59%
18,CCN1/C(=C/C=C/C=C/c2sc3ccccc3[n+]2CC)Sc2ccccc21,inconclusive: 46.1%
19,COC(=O)c1ccc(C)c(N(CCO)CCO)c1,inconclusive: 34.7%
20,Cc1cc(C(=O)OCC(=O)c2ccc3c(c2)OCCO3)c(C)o1,inactive: 7.16%
21,COc1cc(/C=C(/C#N)c2nc3ccccc3c(=O)[nH]2)ccc1O,inconclusive: 37.5%
22,C=CCOc1c(CNc2ccc(S(N)(=O)=O)cc2)cccc1OC,inconclusive: 40.8%
